Assay results as given in paper PMC6305323.
These are yes or no findings as the source states them, for the method shown.

T1: OsJAZ2 (rice (Oryza sativa cv. Dongjin)) (UniProt Q8GRS2)
T1 sequence: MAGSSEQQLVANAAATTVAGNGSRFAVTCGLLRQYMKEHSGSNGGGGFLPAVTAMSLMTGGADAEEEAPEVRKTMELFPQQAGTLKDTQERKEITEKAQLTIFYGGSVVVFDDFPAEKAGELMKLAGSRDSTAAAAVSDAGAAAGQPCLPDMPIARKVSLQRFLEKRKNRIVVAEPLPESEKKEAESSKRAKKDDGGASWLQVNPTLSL

T2: OsJAZ4 (rice (Oryza sativa cv. Dongjin)) (UniProt Q10QW3)
T2 sequence: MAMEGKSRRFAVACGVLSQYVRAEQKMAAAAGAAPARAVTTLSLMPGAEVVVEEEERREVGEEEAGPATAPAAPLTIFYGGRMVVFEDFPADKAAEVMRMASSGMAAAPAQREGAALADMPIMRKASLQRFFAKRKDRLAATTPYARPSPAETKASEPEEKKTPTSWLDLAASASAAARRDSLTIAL

T3: OsJAZ11 (rice (Oryza sativa cv. Dongjin)) (UniProt Q7XV97)
T3 sequence: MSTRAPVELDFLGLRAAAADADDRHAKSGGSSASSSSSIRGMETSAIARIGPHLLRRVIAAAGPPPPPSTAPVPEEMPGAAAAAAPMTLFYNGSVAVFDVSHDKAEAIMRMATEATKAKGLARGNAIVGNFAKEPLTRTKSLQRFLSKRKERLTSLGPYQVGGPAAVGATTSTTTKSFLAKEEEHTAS

T4: OsJAZ10 (rice (Oryza sativa cv. Dongjin)) (UniProt Q7XPM8)
T4 sequence: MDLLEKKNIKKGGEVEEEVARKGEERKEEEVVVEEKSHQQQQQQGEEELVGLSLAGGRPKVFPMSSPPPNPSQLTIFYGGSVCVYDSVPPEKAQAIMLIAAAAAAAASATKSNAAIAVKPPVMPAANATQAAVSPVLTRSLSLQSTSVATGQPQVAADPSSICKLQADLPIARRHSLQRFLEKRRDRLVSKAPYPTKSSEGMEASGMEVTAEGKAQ

T5: OsJAZ6 (rice (Oryza sativa cv. Dongjin)) (UniProt Q8H395)
T5 sequence: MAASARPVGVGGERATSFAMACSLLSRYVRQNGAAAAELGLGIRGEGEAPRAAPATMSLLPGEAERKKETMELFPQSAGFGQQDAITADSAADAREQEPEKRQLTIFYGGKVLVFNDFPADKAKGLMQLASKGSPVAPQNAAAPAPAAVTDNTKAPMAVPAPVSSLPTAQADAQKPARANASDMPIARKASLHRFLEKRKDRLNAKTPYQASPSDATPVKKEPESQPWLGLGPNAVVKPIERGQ


Key:
Assay in all cases: two-hybrid; Matchmaker Gold (Clontech), Y2H Gold yeast; JAZs as bait in pGBKT7, DELLAs as prey in pGADT7; growth on DDO (-Leu/-Trp) media with 250 ng/mL Aureobasidin A, 5 days in the dark at 30°C
[1] = molecular target: T1, OsJAZ2 (rice (Oryza sativa cv. Dongjin))
[2] = molecular target: T2, OsJAZ4 (rice (Oryza sativa cv. Dongjin))
[3] = molecular target: T3, OsJAZ11 (rice (Oryza sativa cv. Dongjin))
[4] = molecular target: T4, OsJAZ10 (rice (Oryza sativa cv. Dongjin))
[5] = molecular target: T5, OsJAZ6 (rice (Oryza sativa cv. Dongjin))

Row | binding [1] | binding [2] | binding [3] | binding [4] | binding [5] | Binder
1 | no binding | no binding | no binding | no binding | no binding | SLENDER RICE 1 (SLR1) (protein, UniProt Q7G7J6 1-625) MKREYQEAGGSSGGGSSADMGSCKDKVMAGAAGEEEDVDELLAALGYKVRSSDMADVAQKLEQLEMAMGMGGVSAPGAADDGFVSHLATDTVHYNPSDLSSWVESMLSELNAPLPPIPPAPPAARHASTSSTVTGGGGSGFFELPAAADSSSSTYALRPISLPVVATADPSAADSARDTKRMRTGGGSTSSSSSSSSSLGGGASRGSVVEAAPPATQGAAAANAPAVPVVVVDTQEAGIRLVHALLACAEAVQQENFAAAEALVKQIPTLAASQGGAMRKVAAYFGEALARRVYRFRPADSTLLDAAFADLLHAHFYESCPYLKFAHFTANQAILEAFAGCHRVHVVDFGIKQGMQWPALLQALALRPGGPPSFRLTGVGPPQPDETDALQQVGWKLAQFAHTIRVDFQYRGLVAATLADLEPFMLQPEGEADANEEPEVIAVNSVFELHRLLAQPGALEKVLGTVHAVRPRIVTVVEQEANHNSGSFLDRFTESLHYYSTMFDSLEGGSSGQAELSPPAAGGGGGTDQVMSEVYLGRQICNVVACEGAERTERHETLGQWRNRLGRAGFEPVHLGSNAYKQASTLLALFAGGDGYRVEEKEGCLTLGWHTRPLIATSAWRVAAA
2 | no binding | no binding | no binding | no binding | no binding | SLR1-LIKE (SLRL) protein SLRL2 (protein, UniProt Q6F368 1-500) MAQFGGFGGWSAMDVAAAAAAALGNVSGAVYHADPAAAVYASLVPGMAVVPGRAPPSAVQIEAARRWKELEKMALRSVNLMVTCAGAIQAGDYAAAAGSLSDAREIFAKMPTTRTGIGRVLTHFADALAERLFPAFPQSAPPPPPPRGEQRELFRGFYEAGPYLKFAHLAANQAILEAFEGCNSVHVIDFALTDGIQWPSLIQALAVRPGGPPFLRITGIGPHAAGNRDELRDVGLRLAEFARSCSVPFAFRGIAADQLDGLRPWMFQVAPGEAVAINSVLQLHRLLVDQDAAAAASFPAPIDGVLDWVASMNPRVFTVVEQEADHNKSSLLERFTNSLFYYASMFDSLEAISRHGGGDGAGNPLAEAYLQGEIADIVSREGSSRVERHEQMPRWVERLRRGGMTQLPLGATGLWQAAMQLREFSGAGFGVQENGGFLTLTWHSQRLYSASAWRATAGKKMTMMASGAADAMEESQNSNTNGGGGGSSGGGHGALNQIMQ
3 | no binding | no binding | no binding | no binding | no binding | SLR1-LIKE protein SLRL1 (protein, UniProt B7F9I5 1-495) MAMDTFPFQWPMDPAASSGLDAGFLPPPAAVAPDDGVGYYDPPAGADVDAAALPEFAAAFPPCAPDAAAAVLAMRREEEEVAGIRLVHLLMSCAGAIEAGDHALASAQLADSHAALAAVSAASGIGRVAVHFTTALSRRLFPSPVAPPTTDAEHAFLYHHFYEACPYLKFAHFTANQAILEAFHGCDHVHVIDFSLMQGLQWPALIQALALRPGGPPFLRITGIGPPSPTGRDELRDVGLRLADLARSVRVRFSFRGVAANSLDEVRPWMLQIAPGEAVAFNSVLQLHRLLGDPADQAPIDAVLDCVASVRPKIFTVIEQEADHNKTGFLDRFTEALFYYSAVFDSLDAASASGGAGNAMAEAYLQREICDIVCGEGAARRERHEPLSRWRDRLTRAGLSAVPLGSNALRQARMLVGLFSGEGHSVEEADGCLTLGWHGRPLFSASAWEAAGDGGGDNNNNSNSNVSGSSGSDSNNSGSSNGKSSGARDGSSVCL
